Assay results taken from publication PMC6308570.
Construct, isoform or probe ends are uncertain for at least one entry.

Test system: thrombin
Assay: binding assay
Conditions: Affinity buffer 50 mM Tris-HCl pH 7.4, 250 mM NaCl, 5 mM MgCl2; 2 h incubation; surface blocked with 1% BSA; temperature not stated; commercial protein; single-stranded DNA

For “AGTCCGTGGTAGGGCAGGTTGGGGTGACT [29-mer thrombin aptamer]”, the Kd was 0.5 nM.
